Results are given in words; binding and its absence hold for the method and conditions named. In cells and extracts the contact can be indirect. Some binding calls cover weakened binding; strength is not graded here. Sequences can lack the tags named with a protein.
Key:
[1] = target: T1, cysteine string protein-α (CSPα) WT, FLAG- and SBP-tagged (UniProt Q9H3Z4); experiment: co-IP
T1 sequence: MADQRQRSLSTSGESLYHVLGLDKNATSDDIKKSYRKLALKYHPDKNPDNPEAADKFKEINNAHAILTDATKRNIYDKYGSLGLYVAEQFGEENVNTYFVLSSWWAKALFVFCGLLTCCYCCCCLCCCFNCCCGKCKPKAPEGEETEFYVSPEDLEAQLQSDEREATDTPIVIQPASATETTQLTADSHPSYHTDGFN

Sequences of proteins named here, by UniProt entry; tags and fusion partners are left off. Residues count along the entry.
UniProt P08195, residues 102-630: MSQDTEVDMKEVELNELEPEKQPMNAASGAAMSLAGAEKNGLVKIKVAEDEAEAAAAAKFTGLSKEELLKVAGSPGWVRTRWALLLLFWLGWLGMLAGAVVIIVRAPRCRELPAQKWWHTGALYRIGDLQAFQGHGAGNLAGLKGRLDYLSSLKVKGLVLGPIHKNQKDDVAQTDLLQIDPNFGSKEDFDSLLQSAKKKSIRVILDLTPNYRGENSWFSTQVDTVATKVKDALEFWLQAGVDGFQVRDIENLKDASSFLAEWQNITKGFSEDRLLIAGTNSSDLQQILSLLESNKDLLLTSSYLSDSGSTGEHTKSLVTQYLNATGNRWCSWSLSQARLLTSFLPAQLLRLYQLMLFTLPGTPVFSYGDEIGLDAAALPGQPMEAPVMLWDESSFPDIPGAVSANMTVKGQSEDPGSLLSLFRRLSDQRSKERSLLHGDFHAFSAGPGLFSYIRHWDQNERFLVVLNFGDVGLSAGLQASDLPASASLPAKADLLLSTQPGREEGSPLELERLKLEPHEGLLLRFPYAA

[2] = target: CD98hc::GFP (GFP tag at the endogenous CD98hc locus) (human (endogenous in HEK293T)) (UniProt P08195); experiment: co-IP

Question: For “CD98hc (endogenous) (from UniProt P08195 1-529)”, which binding [1] is on record?
Answer: Its binding is “binds”.

B1: CSPα WT transfected into CD98hc::GFP cells (protein, UniProt Q9H3Z4 1-198)
chain: T1 sequence
Question: Which binding [2] does the source give for B1 here?
Answer: The binding was “binds”.

Reference: publication doi:10.1101/2021.07.16.452648
